The record followed here is ChEMBL document CHEMBL1130526, “Amide surrogates of matrix metalloproteinase inhibitors: Urea and sulfonamide mimics” (Bioorg Med Chem Lett, 1997).

By UniProt entry, the sequences of proteins in these tests, tags left out. Where a name states a change or a piece, a line headed by the entry shows the natural chain unless it says otherwise.
UniProt P08253: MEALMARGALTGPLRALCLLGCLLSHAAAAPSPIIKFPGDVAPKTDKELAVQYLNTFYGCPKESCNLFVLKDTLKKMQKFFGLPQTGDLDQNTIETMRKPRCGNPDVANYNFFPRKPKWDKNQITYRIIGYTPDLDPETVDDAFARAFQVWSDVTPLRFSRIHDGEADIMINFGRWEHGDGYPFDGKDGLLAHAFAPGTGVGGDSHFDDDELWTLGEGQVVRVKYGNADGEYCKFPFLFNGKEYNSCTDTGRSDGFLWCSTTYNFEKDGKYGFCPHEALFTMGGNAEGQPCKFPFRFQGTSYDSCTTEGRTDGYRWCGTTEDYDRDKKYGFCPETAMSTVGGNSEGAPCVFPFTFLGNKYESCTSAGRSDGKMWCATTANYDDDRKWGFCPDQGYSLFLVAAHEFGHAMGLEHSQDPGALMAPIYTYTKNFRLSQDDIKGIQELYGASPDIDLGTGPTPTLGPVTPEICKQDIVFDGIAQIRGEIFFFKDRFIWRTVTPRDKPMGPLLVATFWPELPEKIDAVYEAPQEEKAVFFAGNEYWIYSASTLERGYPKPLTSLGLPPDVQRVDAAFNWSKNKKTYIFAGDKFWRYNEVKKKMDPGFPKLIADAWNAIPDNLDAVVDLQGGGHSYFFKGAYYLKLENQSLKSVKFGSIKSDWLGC

SMILES strings stand for the structures. Where only a bound is given, the exact number is not on record here.

For the experiment, the target named is 72 kDa type IV collagenase (Homo sapiens, UniProt P08253). The experiment is described as follows: Inhibition of Matrix metalloprotease-2 (MMP-2).

As for `CNC(=O)[C@H](Cc1ccc(OC)cc1)NC(=O)[C@@H](CC(=O)NO)CC(C)C`, the Ki (as a rule, the equilibrium dissociation constant of an inhibitor or competing ligand from its target) is below 10 nM.
